From paper PMC11844294

Sequences of proteins named here, by UniProt entry; tags and fusion partners are left off.
UniProt O95819: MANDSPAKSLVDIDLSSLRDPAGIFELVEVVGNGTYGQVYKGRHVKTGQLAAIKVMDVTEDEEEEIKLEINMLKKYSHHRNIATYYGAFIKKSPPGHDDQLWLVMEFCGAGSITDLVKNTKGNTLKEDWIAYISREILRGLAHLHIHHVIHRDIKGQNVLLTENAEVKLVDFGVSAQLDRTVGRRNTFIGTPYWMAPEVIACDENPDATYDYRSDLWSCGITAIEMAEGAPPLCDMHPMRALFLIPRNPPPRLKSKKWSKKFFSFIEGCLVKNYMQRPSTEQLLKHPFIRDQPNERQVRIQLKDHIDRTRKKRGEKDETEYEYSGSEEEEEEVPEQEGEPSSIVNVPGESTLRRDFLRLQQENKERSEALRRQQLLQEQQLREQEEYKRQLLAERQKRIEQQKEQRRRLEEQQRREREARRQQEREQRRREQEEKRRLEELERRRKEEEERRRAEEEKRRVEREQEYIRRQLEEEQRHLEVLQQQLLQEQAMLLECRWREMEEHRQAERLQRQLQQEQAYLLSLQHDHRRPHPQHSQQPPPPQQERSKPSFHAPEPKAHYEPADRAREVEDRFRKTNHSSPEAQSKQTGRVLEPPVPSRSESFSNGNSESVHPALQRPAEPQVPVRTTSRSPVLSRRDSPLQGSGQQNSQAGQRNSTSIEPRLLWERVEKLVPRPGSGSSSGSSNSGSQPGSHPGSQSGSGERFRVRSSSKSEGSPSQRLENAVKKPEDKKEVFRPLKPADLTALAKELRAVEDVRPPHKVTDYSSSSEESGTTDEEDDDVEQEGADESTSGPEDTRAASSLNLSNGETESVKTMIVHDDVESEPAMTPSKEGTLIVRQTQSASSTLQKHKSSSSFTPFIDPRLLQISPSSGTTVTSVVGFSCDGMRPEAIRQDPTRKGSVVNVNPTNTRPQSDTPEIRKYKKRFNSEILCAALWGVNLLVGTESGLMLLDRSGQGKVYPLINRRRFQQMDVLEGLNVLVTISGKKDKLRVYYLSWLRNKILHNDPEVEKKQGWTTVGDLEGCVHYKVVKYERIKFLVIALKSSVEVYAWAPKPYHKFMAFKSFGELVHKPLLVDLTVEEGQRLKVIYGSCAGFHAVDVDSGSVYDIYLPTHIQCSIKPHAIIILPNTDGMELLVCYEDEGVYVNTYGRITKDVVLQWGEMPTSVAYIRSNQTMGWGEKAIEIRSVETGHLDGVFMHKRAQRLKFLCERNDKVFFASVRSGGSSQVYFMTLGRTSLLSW

Molecular target: T1, Flag-HMMR (UniProt O75330)
T1 sequence: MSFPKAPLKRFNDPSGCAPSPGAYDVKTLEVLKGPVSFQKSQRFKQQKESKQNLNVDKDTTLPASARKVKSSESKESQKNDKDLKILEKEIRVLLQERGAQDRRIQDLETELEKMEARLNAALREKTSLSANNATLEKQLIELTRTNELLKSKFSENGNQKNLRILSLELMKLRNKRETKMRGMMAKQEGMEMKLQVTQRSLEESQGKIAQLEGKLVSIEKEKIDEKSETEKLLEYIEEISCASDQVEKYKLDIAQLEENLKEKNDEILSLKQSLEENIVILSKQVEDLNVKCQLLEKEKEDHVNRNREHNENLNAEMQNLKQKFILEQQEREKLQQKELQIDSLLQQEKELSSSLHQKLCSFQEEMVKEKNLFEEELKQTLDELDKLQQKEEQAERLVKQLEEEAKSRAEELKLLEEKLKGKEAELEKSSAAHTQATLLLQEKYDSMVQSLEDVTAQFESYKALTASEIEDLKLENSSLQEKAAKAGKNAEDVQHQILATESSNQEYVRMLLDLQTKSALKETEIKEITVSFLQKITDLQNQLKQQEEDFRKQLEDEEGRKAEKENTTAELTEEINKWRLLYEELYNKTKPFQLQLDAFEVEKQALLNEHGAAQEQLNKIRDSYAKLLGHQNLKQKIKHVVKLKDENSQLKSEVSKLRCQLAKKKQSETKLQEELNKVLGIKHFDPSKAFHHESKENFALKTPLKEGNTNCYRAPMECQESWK
Assay: affinity purification with mass spectrometry; lysates of H1299 Flag-HMMR-overexpressing stable cells and control cells, anti-Flag magnetic beads, label-free proteomics

binding: binds
Substance: Mitogen-activated protein kinase kinase kinase kinase 4 (MAP4K4) (from UniProt O95819 1-1239)

Results are given in words; binding and its absence hold for the method and conditions named. Binding seen in cells or lysates may run through a third protein. These calls come from enrichment with a bait or labelling near it, and not all partners need be listed. Where a sequence is shown, tags or fusion partners need not be part of it.
